# At least one structure is not confirmed: it was looked up by name or label, or the drawing left a doubt.
# Test system: PPARγ target genes (ANGPT, ACOX3) in ARPE19 cells
# Experiment: PPARγ target genes expression in ARPE19 cells
# Details: 48-hour treatment, troglitazone vs. rosiglitazone
smiles,measurement,value
CN(CCOc1ccc(CC2SC(=O)NC2=O)cc1)c1ccccn1 (stereo not shown) [Rosiglitazone],expression levels of PPARγ target genes ANGPT (angiopoietin-like-4) and ACOX3 (FIGS. 6A-B),differentially affected

# Source: patent publication US20190152967A1, “PEROXISOME PROLIFERATOR-ACTIVATED RECEPTOR GAMMA SELECTIVE AGONISTS FOR INHIBITION OF RETINAL PIGMENT EPITHELIUM DEGENERATION OR GEOGRAPHIC ATROPHY” (The Schepens Eye Research Institute, Inc., priority 2016, published 2019)
